Test results reported in patent US9260397B2, “Salts comprising aryl-alkyl-substituted imidazolium and triazolium cations and the use thereof” (TECHNISCHE UNIVERSITAET DRESDEN, priority 2008, dated 2016).

Test: Hydrogen storage in the ionic liquid and release at reduced pressure
Experimental: Hydrogen is passed for 10 minutes through 5 g of the above mentioned ionic liquid 3-mesityl-1-octyl-imidazolium tetrafluoroborate (Example 95). Then the stored hydrogen is released at reduced pressure.
0.511 g of hydrogen is released. This corresponds to a hydrogen storage capacity of the ionic liquid 3-mesityl-1-octyl-imidazolium tetrafluoroborate of 10.22 weight percent.

CCCCCCCCn1cc[n+](-c2c(C)cc(C)cc2C)c1.F[B-](F)(F)F [3-mesityl-1-octyl-imidazolium tetrafluoroborate]
hydrogen storage capacity (0.511 g hydrogen released from 5 g ionic liquid): 10.22 weight percent
hydrogen released (hydrogen passed for 10 minutes through 5 g of the ionic liquid, released at reduced pressure): 0.511 g
